This test deals with T1, FLAG-Elk-1 (amino acids 1-428) (human, UniProt P19419 1-428).
T1 construct: range 1-428; Full-length Elk-1 expressed in HEK-293 cells; not shown: FLAG tag
T1 sequence (looked up): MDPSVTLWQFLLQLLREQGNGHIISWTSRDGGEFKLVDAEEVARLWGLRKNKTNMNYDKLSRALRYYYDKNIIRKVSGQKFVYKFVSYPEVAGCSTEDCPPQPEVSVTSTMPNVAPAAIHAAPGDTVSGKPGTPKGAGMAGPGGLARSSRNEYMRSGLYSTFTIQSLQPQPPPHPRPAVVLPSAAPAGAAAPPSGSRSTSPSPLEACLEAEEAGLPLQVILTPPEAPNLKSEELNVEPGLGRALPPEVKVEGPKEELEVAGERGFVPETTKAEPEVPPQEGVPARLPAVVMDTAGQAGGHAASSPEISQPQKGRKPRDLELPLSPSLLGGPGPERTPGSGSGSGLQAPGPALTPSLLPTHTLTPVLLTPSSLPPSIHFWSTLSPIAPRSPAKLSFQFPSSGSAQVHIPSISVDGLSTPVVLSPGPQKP
Kind of test: co-immunoprecipitation (anti-c-Myc IP, anti-FLAG blot), HEK-293 cells.

B1: MZF-1-c-Myc fragment, amino acids 73-485 (other, human, UniProt P28698-2 73-485, looked up)
chain: PCRGVGPALITTRWRSPRGRSRGRPSTGGGVVRGGRCDVCGKVFSQRSNLLRHQKIHTGERPFVCSECGRSFSRSSHLLRHQLTHTEERPFVCGDCGQGFVRSARLEEHRRVHTGEQPFRCAECGQSFRQRSNLLQHQRIHGDPPGPGAKPPAPPGAPEPPGPFPCSECRESFARRAVLLEHQAVHTGDKSFGCVECGERFGRRSVLLQHRRVHSGERPFACAECGQSFRQRSNLTQHRRIHTGERPFACAECGKAFRQRPTLTQHLRVHTGEKPFACPECGQRFSQRLKLTRHQRTHTGEKPYHCGECGLGFTQVSRLTEHQRIHTGERPFACPECGQSFRQHANLTQHRRIHTGERPYACPECGKAFRQRPTLTQHLRTHRREKPFACQDCGRRFHQSTKLIQHQRVHSAE
notes: range 73-485; Expressed in HEK-293 cells; also called MZF-173-485; not shown: c-Myc(-His) tag from the pcDNA3.1/myc-His vector
Take B1: the binding result is “no binding”.

For the origin of these results see patent publication US20160362463A1 (CHINA MEDICAL UNIVERSITY, published 2016).
